Amino acid sequences for entries named in this document (tags omitted).
UniProt P63018: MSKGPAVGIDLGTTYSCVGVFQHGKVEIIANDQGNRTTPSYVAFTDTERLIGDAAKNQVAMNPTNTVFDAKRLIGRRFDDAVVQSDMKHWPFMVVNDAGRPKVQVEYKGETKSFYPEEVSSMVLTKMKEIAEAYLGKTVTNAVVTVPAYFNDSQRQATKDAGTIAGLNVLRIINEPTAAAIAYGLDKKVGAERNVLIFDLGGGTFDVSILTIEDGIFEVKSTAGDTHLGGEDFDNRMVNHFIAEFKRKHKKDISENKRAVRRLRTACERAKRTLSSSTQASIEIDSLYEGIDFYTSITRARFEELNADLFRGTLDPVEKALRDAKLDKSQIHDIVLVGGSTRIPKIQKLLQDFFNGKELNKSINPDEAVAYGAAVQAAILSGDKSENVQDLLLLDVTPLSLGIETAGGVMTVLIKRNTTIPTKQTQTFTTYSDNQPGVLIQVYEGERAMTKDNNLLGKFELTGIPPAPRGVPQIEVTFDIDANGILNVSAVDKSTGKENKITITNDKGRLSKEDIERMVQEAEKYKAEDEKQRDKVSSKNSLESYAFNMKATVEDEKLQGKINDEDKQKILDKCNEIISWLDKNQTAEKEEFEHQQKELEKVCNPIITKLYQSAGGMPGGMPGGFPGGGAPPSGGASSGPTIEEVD
UniProt P21707: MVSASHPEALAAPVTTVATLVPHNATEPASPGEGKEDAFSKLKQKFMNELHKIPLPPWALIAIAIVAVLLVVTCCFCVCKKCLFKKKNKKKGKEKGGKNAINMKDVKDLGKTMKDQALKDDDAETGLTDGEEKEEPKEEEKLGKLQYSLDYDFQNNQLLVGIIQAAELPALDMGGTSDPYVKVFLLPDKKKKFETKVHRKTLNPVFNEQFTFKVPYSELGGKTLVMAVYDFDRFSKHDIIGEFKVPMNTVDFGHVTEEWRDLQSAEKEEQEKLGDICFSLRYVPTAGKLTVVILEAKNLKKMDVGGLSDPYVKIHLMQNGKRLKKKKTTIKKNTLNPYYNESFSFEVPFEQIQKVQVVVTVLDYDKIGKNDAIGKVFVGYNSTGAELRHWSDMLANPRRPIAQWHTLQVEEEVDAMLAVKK
UniProt P11275: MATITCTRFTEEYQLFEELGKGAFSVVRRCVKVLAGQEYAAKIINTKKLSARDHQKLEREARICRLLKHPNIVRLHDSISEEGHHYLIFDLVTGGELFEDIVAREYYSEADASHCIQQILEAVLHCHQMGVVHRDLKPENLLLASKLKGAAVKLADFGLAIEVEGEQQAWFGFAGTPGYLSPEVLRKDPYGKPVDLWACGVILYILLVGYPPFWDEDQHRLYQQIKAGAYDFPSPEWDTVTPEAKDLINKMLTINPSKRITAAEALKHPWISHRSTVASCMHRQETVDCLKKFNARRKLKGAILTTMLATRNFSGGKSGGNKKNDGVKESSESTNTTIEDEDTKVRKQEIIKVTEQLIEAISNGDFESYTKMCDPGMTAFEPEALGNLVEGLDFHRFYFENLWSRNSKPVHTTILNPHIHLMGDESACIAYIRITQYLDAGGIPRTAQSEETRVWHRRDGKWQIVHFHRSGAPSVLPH
UniProt P61765: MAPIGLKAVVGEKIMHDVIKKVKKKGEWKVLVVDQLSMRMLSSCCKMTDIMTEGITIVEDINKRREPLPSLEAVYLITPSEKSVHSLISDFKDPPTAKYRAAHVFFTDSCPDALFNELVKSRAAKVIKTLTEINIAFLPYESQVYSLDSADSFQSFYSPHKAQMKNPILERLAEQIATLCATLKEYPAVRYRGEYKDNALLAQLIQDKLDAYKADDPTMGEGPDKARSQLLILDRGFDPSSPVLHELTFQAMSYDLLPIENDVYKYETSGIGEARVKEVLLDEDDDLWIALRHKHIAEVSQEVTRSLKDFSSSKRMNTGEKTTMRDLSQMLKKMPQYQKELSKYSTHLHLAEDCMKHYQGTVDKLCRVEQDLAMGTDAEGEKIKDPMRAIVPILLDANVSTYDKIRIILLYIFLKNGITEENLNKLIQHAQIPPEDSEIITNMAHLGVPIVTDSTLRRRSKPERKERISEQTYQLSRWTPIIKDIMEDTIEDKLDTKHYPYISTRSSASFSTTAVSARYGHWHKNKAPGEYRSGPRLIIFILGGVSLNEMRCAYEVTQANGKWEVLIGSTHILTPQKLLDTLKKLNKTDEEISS

According to article PMC9095502:

Experiments:
[1] = target: T1, DGKθ-GFP-APEX2 (UniProt P52824); assay: proximity labelling; same APEX2 labelling of rat cortical neurons (DIV21), depolarized and non-depolarized; biotinylated proteins pulled down from the lysate on streptavidin beads, eluates read by Western blot with an antibody to each candidate
T1 sequence: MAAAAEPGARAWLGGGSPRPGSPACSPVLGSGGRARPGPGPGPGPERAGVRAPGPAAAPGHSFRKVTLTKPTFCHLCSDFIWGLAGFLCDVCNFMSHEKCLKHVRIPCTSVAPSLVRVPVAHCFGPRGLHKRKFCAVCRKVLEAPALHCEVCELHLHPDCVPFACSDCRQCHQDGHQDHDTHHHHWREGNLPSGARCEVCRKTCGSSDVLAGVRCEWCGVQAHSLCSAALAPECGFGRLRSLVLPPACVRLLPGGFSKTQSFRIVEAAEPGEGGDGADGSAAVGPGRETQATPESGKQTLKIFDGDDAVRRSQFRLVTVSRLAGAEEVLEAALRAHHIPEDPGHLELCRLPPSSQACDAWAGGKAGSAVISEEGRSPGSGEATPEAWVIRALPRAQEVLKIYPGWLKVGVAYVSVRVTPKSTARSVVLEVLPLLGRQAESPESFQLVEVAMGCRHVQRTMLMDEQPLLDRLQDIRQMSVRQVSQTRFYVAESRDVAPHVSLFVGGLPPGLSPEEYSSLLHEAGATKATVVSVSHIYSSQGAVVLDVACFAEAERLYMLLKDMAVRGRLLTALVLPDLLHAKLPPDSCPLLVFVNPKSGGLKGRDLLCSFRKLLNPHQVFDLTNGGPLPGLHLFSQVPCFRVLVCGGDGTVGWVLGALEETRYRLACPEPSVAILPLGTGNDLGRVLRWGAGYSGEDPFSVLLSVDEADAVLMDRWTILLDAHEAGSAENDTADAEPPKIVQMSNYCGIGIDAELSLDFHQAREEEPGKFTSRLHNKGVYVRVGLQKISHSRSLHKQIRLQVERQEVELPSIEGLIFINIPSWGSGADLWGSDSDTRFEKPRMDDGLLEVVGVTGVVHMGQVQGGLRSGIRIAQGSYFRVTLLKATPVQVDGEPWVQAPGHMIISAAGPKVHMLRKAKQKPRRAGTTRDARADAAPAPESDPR

[2] = target: T1, DGKθ-GFP-APEX2; assay: proximity labelling; DGKθ-GFP-APEX2 electroporated into rat cortical neurons (DIV21); biotin-phenol 500 μM 30 min, H2O2 1 mM 1 min, with or without 50 mM KCl for 30 s; lysates trypsinised, biotinylated peptides enriched on streptavidin beads, LC-MS/MS; three experiments

binding [1]: binds
binding [2]: binds
Molecule: heat shock cognate 71 (Hsc70) (endogenous, rat cortical neurons) (from UniProt P63018 1-646)

binding [1]: binds
binding [2]: binds
B3: syntaxin-7 (endogenous, rat cortical neurons) (protein, UniProt O70257 1-261)
chain: MSYTPGIGGDPAQLAQRISSNIQKITQCSAEIQRTLNQLGTPQDTPELRQQLQQEQQYTNQLAKETDKYIKEFGFLPTTPSEQRQRKIQKDRLVAEFTTALTNFQKVQRQAAEREKEFVARVRASSRVSGGFPEDSSKEKNFVSWESQTQPQVQVQDEEITEDDLRLIHERESSIRQLEADIMDINEIFKDLGMMIHEQGDVIDSIEANVESAEVHVQQANQQLSRAANYQRKSRKTLCIIILILVVGIVIIFFIVWGLKG

The next lines start with the molecule.

Molecule: synaptotagmin-1 (Syt1) (endogenous, rat cortical neurons) (from UniProt P21707 1-421)
binding [1]: binds
binding [2]: binds

Molecule: calcium calmodulin-dependent kinase II alpha (CaMKIIα) (endogenous, rat cortical neurons) (from UniProt P11275 1-478)
binding [1]: binds
binding [2]: binds

Molecule: syntaxin-binding protein 1 (Munc18-1) (endogenous, rat cortical neurons) (from UniProt P61765 1-594)
binding [1]: binds
binding [2]: binds

B1: dynamin-1 (endogenous, rat cortical neurons) (protein, UniProt P21575 1-864)
chain: MGNRGMEDLIPLVNRLQDAFSAIGQNADLDLPQIAVVGGQSAGKSSVLENFVGRDFLPRGSGIVTRRPLVLQLVNSTTEYAEFLHCKGKKFTDFEEVRLEIEAETDRVTGTNKGISPVPINLRVYSPHVLNLTLVDLPGMTKVPVGDQPPDIEFQIRDMLMQFVTKENCLILAVSPANSDLANSDALKIAKEVDPQGQRTIGVITKLDLMDEGTDARDVLENKLLPLRRGYIGVVNRSQKDIDGKKDITAALAAERKFFLSHPSYRHLADRMGTPYLQKVLNQQLTNHIRDTLPGLRNKLQSQLLSIEKEVDEYKNFRPDDPARKTKALLQMVQQFAVDFEKRIEGSGDQIDTYELSGGARINRIFHERFPFELVKMEFDEKELRREISYAIKNIHGIRTGLFTPDLAFEATVKKQVQKLKEPSIKCVDMVVSELTSTIRKCSEKLQQYPRLREEMERIVTTHIREREGRTKEQVMLLIDIELAYMNTNHEDFIGFANAQQRSNQMNKKKTSGNQDEILVIRKGWLTINNIGIMKGGSKEYWFVLTAENLSWYKDDEEKEKKYMLSVDNLKLRDVEKGFMSSKHIFALFNTEQRNVYKDYRQLELACETQEEVDSWKASFLRAGVYPERVGDKEKASETEENGSDSFMHSMDPQLERQVETIRNLVDSYMAIVNKTVRDLMPKTIMHLMINNTKEFIFSELLANLYSCGDQNTLMEESAEQAQRRDEMLRMYHALKEALSIIGDINTTTVSTPMPPPVDDSWLQVQSVPAGRRSPTSSPTPQRRAPAVPPARPGSRGPAPGPPPAGSALGGAPPVPSRPGASPDPFGPPPQVPSRPNRAPPGVPSRSGQASPSRPESPRPPFDL
binding [1]: binds
binding [2]: binds

B2: synaptogyrin-1 (endogenous, rat cortical neurons) (protein, UniProt Q62876 1-234)
chain: MEGGAYGAGKAGGAFDPYTLVRQPHTILRVVSWVFSIVVFGSIVNEGYLNNPEEEEEFCIYNRNPNACSYGVTVGVLAFLTCLVYLALDVYFPQISSVKDRKKAVLSDIGVSAFWAFFWFVGFCFLANQWQVSKPKDNPLNEGTDAARAAIAFSFFSIFTWAGQAVLAFQRYQIGADSALFSQDYMDPSQDSSMPYAPYVEPSAGSDPTGMGGTYQHPANAFDAEPQGYQSQGY
binding [1]: binds
binding [2]: binds

Results are given in words; binding and its absence hold for the method and conditions named. Binding seen in cells or lysates may run through a third protein. Here binding means that the protein was enriched with, or labelled near, the bait; the list need not be complete. Sequences can lack the tags named with a protein. Each block holds one molecule with its values, some of them ahead of it.
